# Data taken from US6277829A, “Process for preparing of aqueous formulation for opthalmic use” (S.I.F.I. Societa Industria Farmaceutica Italiana S.p.A., priority 1999, dated 2001).
# Settings: cornea, bioassay S. aureus ATCC 29213
# Procedure: Twelve male white New Zealand rabbits (weighing 1.8-2.3 kg) have been randomly divided in three groups (consisting of four animals each).
# I Group: three instillations (animals have been sacrificed 6 hours after the first dosing)
# II Group: six instillations (animals have been sacrificed 12 hours after the first dosing)
# III Group: six instillations (animals have been sacrificed 24 hours after the first dosing)
# Aqueous humor has been drawn away with a 23-gauge needle attached to an insulin syringe of 1 ml. After enucleation the cornea has been excised at the limbus and removed from the eyeball. All specimens have been carefully weighed, then immediately frozen at -20° C. […] Each specimen has been ground and homogenized with 1 ml of PBS (2 min., 24,000 rpm). The suspension has been mixed with an equal volume of acetonitrile and stored at 0° C. After 1 hour, the samples have been centrifuged at 0° C. […] Aqueous humor has been directly mixed with acetonitrile before being centrifuged.
structure (smiles),measurement,setting,value
CC[C@H]1OC(=O)[C@H](C)[C@@H](O[C@H]2C[C@@](C)(OC)[C@@H](O)[C@H](C)O2)[C@H](C)[C@@H](O[C@@H]2O[C@H](C)C[C@H](N(C)C)[C@H]2O)[C@](C)(O)C[C@@H](C)CN(C)[C@H](C)[C@@H](O)[C@]1(C)O [azithromycin],Zone (inhibition zone),"3 instillations, after 6 hours",10.00 mm
same,Zone (inhibition zone),"6 instillations, after 24 hours",11.75 mm and 11.00 mm and 10.50 mm

# Where “and” joins values, the source holds several entries; their conditions need not be identical. Identical values can stand only once. Like-named read-outs stand apart in the source and are kept apart here.
